The whole screen tested about 320,000 compounds, of which about 2,100 (0.66%) were called active. Inconclusive results, whose numbers are uncertain, are shown with a selection of clear calls. Calls follow the shape of the dose curve; as a rule, active = well fitted inhibition curve with a large enough effect in the signal ratio, with a control signal flat (not every such curve was filed as active); inconclusive = small, poorly fitted or top-dose-only effect, or effect the other way, or a change in a side signal; inactive = flat fitted curve, though single readings scatter; the % refers to the signal ratio. Potencies of inconclusive entries are doubtful fits and often do not repeat.
Test: qHTS Assay for Lipid Storage Modulators in Drosophila S3 Cells
Conditions: BODIPY lipid droplet fluorescence, 18-24 h, cells fed with added oleic acid; lipid storage change, negative = inhibition: at 46.1 µM (top of the series) unless noted
Method in brief: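 Drosophila S3 cells got compounds at several concentrations plus oleic acid (400 uM solution). Laser-scanning cytometry with 488 nm excitation read lipid droplets at 500-530 nm and cells at 575-640 nm. Percent activity was relative to 20 uM Triacsin C.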
% is scaled to controls: 0 for no effect and ±100 for the full control effect; potency is read from the fitted curve at half-maximal effect.

SMILES	lipid storage change, negative = inhibition	Potency
COC(=O)c1c(N2C(=O)[C@H]3[C@@H](C2=O)[C@]2(C(=O)Nc4c(C)cccc42)N2CCC[C@@H]32)sc(C)c1C	inconclusive: -40.5%	–
O=C(COC(=O)c1cc2c(s1)CCCC2)NCc1ccccc1Cl	inconclusive: -9.54%	–
Cc1ccc(Cl)cc1-n1c(=O)cc(N2CC(C)OC(C)C2)[nH]c1=O (stereo unspecified)	inconclusive: -7.39%	–
C/C(=N\NC(=O)CCc1ccc(S(=O)(=O)N2CCOCC2)cc1)c1ccc(OC(F)F)cc1	–	active: 11.6 µM
COc1ccc(C(C(=O)NC2CCCC2)N(Cc2ccc(C)cc2)C(=O)c2ccn[nH]2)cc1OC (stereo unspecified)	inconclusive: -23.2%	–
COc1ccc(OC)c(NC(=O)CCCCCn2nnc3ccccc3c2=O)c1	–	inconclusive: 25.9 µM [activator, single point]
O=C(CCc1nc2ccccc2[nH]c1=O)OCc1ccc(S(=O)(=O)N2CCOCC2)cc1	inconclusive: -43.4%	–
COc1cc(OC)c(C(=O)NCCCn2ccnc2)cc1OC	inconclusive: -4.09%	–
Cn1cc(S(=O)(=O)NCc2ccc(Cl)cc2)c(=O)n(C)c1=O	inconclusive: -19.9%	–
O=C(CCc1c[nH]c2ccccc12)N1CCCCCCC1	inactive	–
O=C(Nc1ccccc1C(=O)NCCN1CCOCC1)c1ccc(Cl)cc1Cl	inconclusive: 8.13%	–
O=C(Nc1cccc(Cl)c1)c1ccc(F)c(S(=O)(=O)NCc2cccs2)c1	inconclusive: -24.7%	–
N#CN=C1CCCCCN1CC(N)=O	–	active: 0.731 µM
COc1ccc(C2CC(c3cccs3)=NN2C(=O)CSc2nc3ccccc3o2)cc1 (stereo unspecified)	–	active: 9.2 µM
Cc1ccccc1C(=O)Nc1ccc(N(C)C)c2ccccc12	inconclusive: -34.2%	–
Cn1cccc1Cc1nnc(SCC(=O)Nc2ccc3c(c2)OCO3)n1CCc1ccccc1	inconclusive: 1.72%	–
CCCc1nc2oc3c(NCCN4CCOCC4)ncnc3c2c2c1CCCC2	inconclusive: -14%	–
O=C1CC(c2ccccc2)CN1C(=O)c1cccc([N+](=O)[O-])c1 (stereo unspecified)	inconclusive: -9.13%	–
CCOC(=O)c1[nH]c2ccccc2c1NC(=O)CCN1CCN(C(=O)OCC)CC1	–	inconclusive: 7.31 µM [activator, partial curve, poor fit]
COc1cc(NC(=O)COc2cc(O)c3c(c2)OC(C)(C)CC3=O)cc(OC)c1OC	–	inconclusive: 18.4 µM [falling, single point]
Cc1ccc(S(=O)(=O)Nc2c(C)[nH]c(=O)[nH]c2=O)cc1C	inconclusive: -14.1%	–
COc1ccccc1NC(=O)CN1C(=O)NC2(CCCc3ccccc32)C1=O (stereo unspecified)	–	inconclusive: 0.92 µM [falling, partial curve, poor fit]
Cc1nc(C)c(-c2csc(Nc3ccc(O)cc3C)n2)s1	–	inconclusive: 4.11 µM [activator, full curve]
CC(=O)c1c(C)cc(C)c(CSc2nc(C)cc(=O)[nH]2)c1C	inconclusive: 12.6%	–
COc1ccc2c(OC)c3ccoc3nc2c1OC	–	inconclusive: 9.2 µM [falling, partial curve]
Fc1ccccc1N1CCN(C2CCCN(Cc3cccc(C(F)(F)F)c3)C2)CC1 (stereo unspecified)	inconclusive: -44.1%	–

SMILES	lipid storage change, negative = inhibition	Potency
O=C(Nc1ccc(F)cc1Cl)C1CCN(C(=O)Nc2ccccc2)CC1	–	inconclusive: 29.1 µM [activator, single point]
CC(=O)Nc1nc(C)c(Oc2cccc(C(F)(F)F)c2)c(=O)[nH]1	inconclusive: 0.443%	–
CCOc1ccccc1N1CC(C(=O)N(C)Cc2cccnc2)CC1=O (stereo unspecified)	–	inconclusive: 20.6 µM [falling, partial curve, poor fit]
C=CCn1cc(C(=O)NCCOC)c(=O)c2cc(S(=O)(=O)N3CCCCCC3)ccc21	–	inconclusive: 2.91 µM [falling, partial curve]
CCCN1CCN(S(=O)(=O)c2ccc(OC)c(Br)c2)CC1	inconclusive: 36.7%	–
COc1cnn(Cc2ccccc2)c(=O)c1SCc1ccccc1	–	inconclusive: 0.0411 µM [falling, full curve, poor fit]
Oc1ccc(CNC2CCCCC2)cc1	inactive	–
CC(=O)c1ccc(NC(=S)N2CCCCCC2)cc1	inconclusive: -8.31%	–
CCCCN(C(=S)Nc1ccc(F)cc1)c1c(N)n(CCC)c(=O)[nH]c1=O	inconclusive: -29%	–
O=C(Nc1ccn(Cc2ccccc2)n1)c1n[nH]c([N+](=O)[O-])c1Cl	inconclusive: 4.29%	–
CC(C)(C)OC(=O)N[C@@H](Cc1ccccc1)C(=O)NCC1CCC(C(=O)O)CC1 (stereo partly specified)	inconclusive: -39.8%	–
CCOC(=O)c1ccc2c(c1)N(C)C(=O)c1ccccc1S2	inconclusive: -16.6%	–
COc1cc(C(=O)NC2=NCCS2)ccc1OCc1c(C)noc1C	inconclusive: -37.1%	–
CCOc1ccc(/C=N/NC(=O)CNC(=O)c2ccc(S(=O)(=O)N3CCOCC3)cc2)cc1	inconclusive: 15.1% [at 9.22 µM]	–
O=C(N[C@@H](Cc1c[nH]c2ccccc12)C(=O)O)OCC1c2ccccc2-c2ccccc21	inconclusive: -30.9%	–
O=C(O)C(c1ccccc1)C1(O)CCCC1 (stereo unspecified)	–	inconclusive: 0.651 µM [falling, full curve]
CCCOc1cccc(-c2cc(C(=O)N/N=C/c3cccnc3)c3ccccc3n2)c1	–	inconclusive: 16.4 µM [falling, single point]
COC(=O)c1ccc(NC(=O)COC(=O)COc2cccc3c2OC(C)(C)C3)cc1	–	inconclusive: 1.16 µM [falling, partial curve]
CC(NC(=O)C1CCN(S(=O)(=O)c2cc([N+](=O)[O-])ccc2Cl)CC1)c1ccccc1 (stereo unspecified)	inconclusive: -75.1%	–
O=C(CN(C(=O)C1CSC(=O)C1)c1ccccc1F)NCc1ccc2c(c1)OCO2 (stereo unspecified)	inconclusive: 27.4%	–
CSc1ccccc1NC(=O)c1ccc(N2CCCC2=O)cc1	–	inconclusive: 3.66 µM [activator, single point]
NC(=O)NNc1ncc(C(F)(F)F)cc1Cl	inconclusive: 31.5%	–
S=C(NNc1ccc2ccccc2c1)NC1CCCCC1	–	inconclusive: 23.1 µM [cytotoxic, single point]
CCOC(=O)N1CCN(C(=O)c2ccc3c(c2)sc2nc(-c4ccccc4)cn23)CC1	–	inconclusive: 9.2 µM [falling, partial curve]
Cc1cccc(-c2noc(CN(C(=O)C34CC5CC(CC(C5)C3)C4)C(C)C)n2)c1	inactive	–
COC(=O)c1cccc(-c2noc(-c3ccccc3F)n2)c1	inconclusive: 69.2%	–

SMILES	lipid storage change, negative = inhibition	Potency
CC(=O)c1ccc(OCCCC(=O)Nc2ccc(C)c(S(=O)(=O)N(C)C)c2)cc1	inconclusive: 12.4%	–
NC(=O)COc1ccccc1C1=NO[C@@](CC(=O)O)(C(=O)Nc2ccc3c(c2)OCCO3)C1	inconclusive: 12.7%	–
Cc1cccc(OCCn2ccnc2)c1C	inconclusive: -6.95%	–
O=C(CC1CCCC1)N1CCCC(Nc2ccc(F)cc2)C1 (stereo unspecified)	inconclusive: -14.5%	–
COc1cccc(-c2nnc(SCC(=O)N(C(C)C)C(C)C)o2)c1	–	inconclusive: 6.51 µM [activator, single point]
O=C(c1ccccn1)N1CCN(c2cccc(C(F)(F)F)c2)CC1	inconclusive: 36.9%	–
CCN(CC(=O)NCc1ccc(F)cc1)C(=O)c1ccc(C)o1	inconclusive: 35.8%	–
Oc1ccc2ccccc2c1-c1sc(Nc2ccccc2)n[n+]1-c1ccc(F)cc1	–	inconclusive: 2.31 µM [falling, full curve]
CC(=O)Oc1ccccc1C1=NN(C(C)=O)C(c2ccccc2)C1 (stereo unspecified)	inconclusive: -3.86%	–
O=C(Cn1nc(Cc2cccnc2)c2ccccc2c1=O)NCCCN1CCCC1=O	inconclusive: 51.9%	–
CC(=O)Nc1c(C)ccc(S(N)(=O)=O)c1C	inconclusive: 19.4%	–
N#Cc1cn(CCOc2ccccc2F)c2ccccc12	inconclusive: 47.1%	–
Cc1ccc(-c2cn(S(=O)(=O)c3cccc4nsnc34)nc2N)cc1	inconclusive: 27.2%	–
Cc1ccccc1NC(=O)Cc1nc(COC(=O)c2cccc(O)c2)cs1	inconclusive: 13.1%	–
CCCCn1c(C23CC4CC(CC(C4)C2)C3)n[nH]c1=S	inconclusive: 7.97%	–
O=C(CN1C(=O)c2cccnc2Oc2ccc(Cl)cc21)Nc1ccc(F)cc1	–	inconclusive: 23.1 µM [falling, partial curve, poor fit]
COc1ccc(CN(C)C(=O)c2cc(-c3ccc(OC)c(OC)c3)nc3ccccc23)c(OC)c1	–	inconclusive: 10.3 µM [activator, single point]
CCOc1cc(C(=O)OCC(=O)c2c[nH]c3ccccc23)ccc1OCC(=O)N1CCOCC1	inconclusive: 14.8%	–
CCCCNC(=O)c1onc(CSc2nc3ccccc3[nH]2)c1C(=O)NCCCC	–	inconclusive: 20.6 µM [falling, single point]
Cc1ccc(-c2c[n+](Cc3ccc(Cl)cc3)c3n2CCC3)cc1	–	inconclusive: 20.6 µM [falling, single point]
CN(C)S(=O)(=O)N(CC(=O)N1CCN(Cc2ccccc2)CC1)c1ccccc1	inconclusive: -9.76%	–
CCCn1nc(C(=O)OCC(=O)c2c(N)n(C)c(=O)n(C)c2=O)c2ccccc2c1=O	inconclusive: 12.8%	–
Cc1cccnc1CN1CCN(C(=O)c2cc(COc3ccc4ncccc4c3)on2)CC1	–	inconclusive: 29.1 µM [falling, single point]
COc1ccc(Nc2nc3ccccc3nc2C)cc1	inconclusive: -21.3%	–

3 structures from above, sorted by SMILES length, low to high.
SMILES	lipid storage change, negative = inhibition	Potency
CC(=O)Nc1c(C)ccc(S(N)(=O)=O)c1C	inconclusive: 19.4%	–
CCCCn1c(C23CC4CC(CC(C4)C2)C3)n[nH]c1=S	inconclusive: 7.97%	–
O=C(CN1C(=O)c2cccnc2Oc2ccc(Cl)cc21)Nc1ccc(F)cc1	–	inconclusive: 23.1 µM [falling, partial curve, poor fit]
